Assay results from paper PMC11215747, “Improved Rigidin-Inspired Antiproliferative Agents with Modifications on the 7-Deazahypoxanthine C7/C8 Ring Systems” (Journal of Medicinal Chemistry, 2024).
The source's definition of the ratio is not given here.

Test system: PNT1A cells
Assay: MTT cytotoxicity assay against normal epithelial cell line PNT1A
Format: cell-based
Conditions: for Therapeutic index: Table S1, calculated as an indication of toxicity, PNT1A versus HeLa; for therapeutic index (approximate): cytotoxicity against normal epithelial cell line PNT1A
Experimental: The 3-(4,5-dimethylthiazol-2-yl)-2,5-diphenyltetrazolium bromide (MTT) assay was employed to evaluate the antiproliferative activities of the synthesized 7-deazahypoxathine analogues. The HeLa, PNT1A, or PANC-1 cell lines were assessed by trypsinizing and seeding 4 × 10^3 cells per well into 96-well plates. Synthesized compounds were dissolved in DMSO at a concentration of either 50 mM or 100 mM before cell treatment. Cells were grown for 24 h and then treated with compounds at concentrations ranging from 0.04 to 100 μM and incubated for 48 h in 200 μL media. Twenty microliters of MTT reagent in serum-free medium (5 mg/mL) was added to each well and incubated further for 2 h. Media was removed and the resulting formazan crystals were resolubilized in 200 μL of DMSO. A Thermomax Molecular Device plate reader was utilized to measure A490. Experiments were performed in quadruplicate and repeated at least twice for each compound. The control comprised of cells treated with 0.1% DMSO. One micromolar phenyl arsine oxide (PAO) was utilized as a positive killing control.

Compound | Therapeutic index | therapeutic index (approximate) [fold]
6-[4-(2-Ethoxyethoxy)benzoyl]-5-(3-fluorophenyl)-2-(pent-4-yn-1-yl)-1,7-dihydro-4H-pyrrolo[2,3-d]pyrimidin-4-one [Compound 59] | 2.6 | ~2
C#CCCCc1nc(=O)c2c(-c3ccccc3)c(C(=O)c3ccccc3C)[nH]c2[nH]1 [Compound 21, 6-(2-Methylbenzoyl)-2-(pent-4-yn-1-yl)-5-phenyl-1,7-dihydro-4H-pyrrolo[2,3-d]pyrimidin-4-one] | 0.9 | ~2
C#CCCCc1nc(=O)c2c(-c3ccccc3)c(C(=O)c3ccc(OCCOCC)cc3)[nH]c2[nH]1 [Compound 33, 6-[4-(2-Ethoxyethoxy)benzoyl]-2-(pent-4-yn-1-yl)-5-phenyl-1,7-dihydro-4H-pyrrolo[2,3-d]pyrimidin-4-one] | 1.6 | 
